# Drug screen on melanoma cell lines: cell count

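The test systems are human melanoma cell lines, treated with a pair of drugs for 72 h and then stained and imaged. Values are the number of DAPI-stained nuclei as a percentage of the DMSO control: 100 is no effect, lower means fewer cells. Concentrations were fixed for each drug; these are the higher of two levels. These are primary screening values without error estimates.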 Only some of the drugs and lines screened are listed, without regard to their results.

First drug in all entries: selumetinib, 0.075 µM, Cn1cnc2c(F)c(Nc3ccc(Br)cc3Cl)c(C(=O)NOCCO)cc21

| # | Second drug | COLO 792 | COLO 800 | COLO 829 | C32 |
|---|---|---|---|---|---|
| 1 | OCCn1cc(-c2cnc3nnn(Cc4ccc5ncccc5c4)c3n2)cn1 at 5 µM | 79.2 | 70.9 | 84.9 | 68.9 |
| 2 | C[C@@H]1CCN(C(=O)CC#N)C[C@@H]1N(C)c1ncnc2[nH]ccc12 at 5 µM | 94.3 | 150 | 88.8 | 87.7 |
| 3 | Clc1ccc(Nc2nnc(Cc3ccncc3)c3ccccc23)cc1 at 10 µM | 57.3 | 116 | 62.5 | 71.6 |
| 4 | CC(=O)O[C@@]12CO[C@@H]1C[C@H](O)[C@@]1(C)C(=O)[C@H](O)C3=C(C)[C@@H](OC(=O)[C@H](O)[C@@H](NC(=O)OC(C)(C)C)c4ccccc4)C[C@@](O)([C@@H](OC(=O)c4ccccc4)[C@H]21)C3(C)C at 0.0005 µM | 26.0 | 26.7 | 48.5 | 58.2 |
| 5 | Cn1cc(/C=C2\C(=O)Nc3cccnc32)c2ccccc21 at 2 µM | 61.8 | 104 | 92.8 | 88.3 |
| 6 | Cc1cc(N2CCOCC2)cc2[nH]c(-c3c(NC[C@@H](O)c4cccc(Cl)c4)cc[nH]c3=O)nc12 at 1 µM | 44.3 | 35.8 | 78.1 | 63.0 |
| 7 | CNC(=O)c1cc(Oc2ccc(NC(=O)Nc3ccc(Cl)c(C(F)(F)F)c3)cc2)ccn1 at 2 µM | 75.8 | 130 | 82.4 | 76.7 |
| 8 | CCN(CC)CCCCNc1ncc2cc(-c3cc(OC)cc(OC)c3)c(NC(=O)NC(C)(C)C)nc2n1 at 0.5 µM | 55.7 | 79.6 | 83.0 | 74.2 |
| 9 | Nc1ccn([C@@H]2O[C@H](CO)[C@@H](O)C2(F)F)c(=O)n1 at 0.002 µM | 60.6 | 21.9 | 73.5 | 73.9 |
| 10 | C[C@]1(c2nc3c(C(N)=O)cccc3[nH]2)CCCN1 at 7 µM | 71.6 | 67.7 | 86.4 | 71.4 |
| 11 | O=C(CCCCCCC(=O)Nc1ccccc1)NO at 0.4 µM | 52.8 | 48.4 | 77.9 | 84.8 |
| 12 | COc1ccc(-c2ccc3c(N4CCOCC4)nc(N4C[C@@H](C)O[C@@H](C)C4)nc3n2)cc1CO at 0.1 µM | 62.2 | 84.0 | 82.8 | 84.5 |
| 13 | COc1cc2c(Oc3ccc4[nH]c(C)cc4c3F)ncnc2cc1OCCCN1CCCC1 at 2 µM | 58.8 | 91.1 | 90.9 | 78.4 |
| 14 | N#Cc1c(O)c2c(-c3ccc(-c4ccccc4O)cc3)csc2[nH]c1=O at 10 µM | 63.1 | 131 | 92.3 | 73.9 |
| 15 | OCc1c[nH]c2ccccc12 at 4 µM | 59.9 | 95.9 | 68.2 | 85.4 |
| 16 | C=CCn1c(=O)c2cnc(Nc3ccc(N4CCN(C)CC4)cc3)nc2n1-c1cccc(C(C)(C)O)n1 at 0.1 µM | 71.7 | 133 | 71.4 | 86.0 |
| 17 | CN(c1ncccc1CNc1nc(Nc2ccc3c(c2)CC(=O)N3)ncc1C(F)(F)F)S(C)(=O)=O at 0.4 µM | 57.3 | 68.0 | 89.0 | 64.6 |
| 18 | Oc1nc(-c2ccc(C(F)(F)F)cc2)nc2c1CSCC2 at 10 µM | 54.4 | 76.6 | 68.5 | 82.6 |
| 19 | CN(NC(=O)CC(=O)NN(C)C(=S)c1ccccc1)C(=S)c1ccccc1 at 0.03 µM | 31.6 | 17.4 | 39.6 | 40.9 |
| 20 | COc1cc2ncnc(Nc3ccc(Oc4ccccc4)cc3)c2cc1OC at 10 µM | 39.8 | 122 | 80.2 | 87.4 |

The first 2 entries again:

{"second drug": "OCCn1cc(-c2cnc3nnn(Cc4ccc5ncccc5c4)c3n2)cn1 at 5 µM", "COLO 792": 79.2, "COLO 800": 70.9, "COLO 829": 84.9, "C32": 68.9}
{"second drug": "C[C@@H]1CCN(C(=O)CC#N)C[C@@H]1N(C)c1ncnc2[nH]ccc12 at 5 µM", "COLO 792": 94.3, "COLO 800": 150, "COLO 829": 88.8, "C32": 87.7}

Values as published with doi:10.1371/journal.pone.0140310, rounded.